Assay results reported in patent publication US7851493B2, “Phenyl-1,2,4-oxadiazolone derivatives with phenyl group, processes for their preparation and their use as pharmaceuticals” (Sanofi-Aventis, priority 2005, dated 2010).
Some results were stated once for a whole list of compounds, not compound by compound.

What follows are molecules tested against T1, human PPARalpha (Homo sapiens, UniProt Q07869) (assay: Cellular PPARalpha assay (human GAL4 luciferase reporter, stably transfected HEK cell line)). Settings: range over the examples; units printed in the value (nM to μM).
T1 construct: amino acids S167-Y468; expressed in transfected cells; plasmid pcDNA3
T1 sequence (Q07869 167-468): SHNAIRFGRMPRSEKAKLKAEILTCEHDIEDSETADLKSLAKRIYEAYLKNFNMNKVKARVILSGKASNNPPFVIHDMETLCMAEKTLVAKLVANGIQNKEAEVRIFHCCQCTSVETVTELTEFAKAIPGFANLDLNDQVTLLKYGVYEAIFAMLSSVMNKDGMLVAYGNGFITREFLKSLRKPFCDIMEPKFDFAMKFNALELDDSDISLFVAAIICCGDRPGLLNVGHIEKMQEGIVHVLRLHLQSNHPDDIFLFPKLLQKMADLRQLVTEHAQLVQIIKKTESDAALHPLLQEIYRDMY
Format: cell-based
Method: Determination of EC50 Values of PPAR Agonists in the Cellular PPARalpha Assay
The potency of substances which bind to human PPARalpha and activate it in an agonistic manner is analyzed using a stably transfected HEK cell line (HEK=human embryo kidney) which is referred to here as PPARalpha reporter cell line. It contains two genetic elements, a luciferase reporter element (pdeltaM-GAL4-Luc-Zeo) and a PPARalpha fusion protein (GR-GAL4-humanPPARalpha-LBD) which mediates expression of the luciferase reporter element depending on a PPARalpha ligand. The stably and constitutively expressed fusion protein GR-GAL4-humanPPARalpha-LBD binds in the cell nucleus of the PPARalpha reporter cell line via the GAL4 protein portion to the GAL4 DNA binding motifs 5′-upstream of the luciferase reporter element which is stably integrated in the genome of the cell line. There is only weak expression of the luciferase reporter gene in the absence of a PPARalpha ligand if fatty acid-depleted fetal calf serum (cs-FCS) is used in the assay. PPARalpha ligands bind and activate the PPARalpha fusion protein and thereby stimulate the expression of the luciferase reporter gene. The luciferase which is formed can be detected by means of chemiluminescence via an appropriate substrate.
Construction of the PPARalpha Reporter Cell Line
The PPARalpha reporter cell line was prepared in two stages. Firstly, the luciferase reporter element was constructed and stably transfected into HEK cells. For this purpose, five binding sites of the yeast transcription factor GAL4 (Accession #AF264724) were cloned in 5′-upstream of a 68 bp-long minimal MMTV promoter (Accession #V01175). The minimal MMTV promoter section contains a […] and a TATA element in order to enable efficient transcription by RNA polymerase II. The cloning and sequencing of the GAL4-MMTV construct took place in analogy to the description of Sambrook J. et al. (Molecular cloning, Cold Spring Harbor Laboratory Press, 1989). Then the complete Photinus pyralis gene (Accession #15077) was cloned in 3′-downstream of the GAL4-MMTV element. After sequencing, the luciferase reporter element consisting of five GAL4 binding sites, MMTV promoter and luciferase gene was recloned into a plasmid which confers zeocin resistance in order to obtain the plasmid pdeltaM-GAL4-Luc-Zeo. This vector was transfected into HEK cells in accordance with the statements in Ausubel, F. M. et al. (Current protocols in molecular biology, Vol. 1-3, John Wiley & Sons, Inc., 1995).
In a second step, the PPARalpha fusion protein (GR-GAL4-humanPPARalpha-LBD was introduced into the stable cell clone described. For this purpose, initially the cDNA coding for the N-terminal 76 amino acids of the glucocorticoid receptor (Accession #P04150) was linked to the cDNA section coding for amino acids 1-147 of the yeast transcription factor GAL4 (Accession #P04386). The cDNA of the ligand-binding domain of the human PPARalpha receptor (amino acids S167-Y468; Accession #S74349) was cloned in at the 3′-end of this GR-GAL4 construct. The fusion construct prepared in this way (GR-GAL4-humanPPARalpha-LBD) was recloned into the plasmid pcDNA3 (Invitrogen) in order to enable constitutive expression therein by the cytomegalovirus promoter. This plasmid was linearized with a restriction endonuclease and stably transfected into the previously described cell clone containing the luciferase reporter element. The finished PPARalpha reporter cell line which contains a luciferase reporter element and constitutively expresses the PPARalpha fusion protein (GR-GAL4-human PPARalpha-LBD) was isolated by selection with zeocin (0.5 mg/ml) and G418 (0.5 mg/ml).
The activity of PPARalpha agonists is determined in a 3-day assay, which is described below: […]
For `CCN(CCOC)Cc1nc(-c2ccc(C(F)(F)F)cc2)sc1COc1ccc(-c2noc(=O)[nH]2)c(Cl)c1` [Example 76, 3-{2-Chloro-4-[4-{[ethyl-(2-methoxy-ethyl)-amino]-methyl}-2-(4-trifluoromethyl-phenyl)-thiazol-5-ylmethoxy]-phenyl}-4H-[1,2,4]oxadiazol-5-one], the EC50 was no less than 5 nM.
For `COc1cc(OCc2sc(-c3ccc(C(F)(F)F)cc3)nc2CCCN2CCSCC2)ccc1-c1noc(=O)[nH]1` [Example 103, 3-{2-Methoxy-4-[4-(3-thiomorpholin-4-yl-propyl)-2-(4-trifluoromethyl-phenyl)-thiazol-5-ylmethoxy]-phenyl}-4H-1,2,4-oxadiazol-5-one], the EC50 was no less than 5 nM.
In the case of `COc1cc(OCc2sc(-c3ccc(C(F)(F)F)cc3)nc2CCCSC)ccc1-c1noc(=O)[nH]1` [Example 101, 3-{2-Methoxy-4-[4-(3-methylsulfanyl-propyl)-2-(4-trifluoromethyl-phenyl)-thiazol-5-ylmethoxy]-phenyl}-4H-1,2,4-oxadiazol-5-one], the EC50 is reported as no less than 5 nM.
For `COc1cc(OCc2sc(-c3ccc(C(F)(F)F)cc3)nc2CN2CCC(F)(F)CC2)ccc1-c1noc(=O)[nH]1` [Example 4, 3-{4-[4-(4,4-Difluoro-piperidin-1-ylmethyl)-2-(4-trifluoromethyl-phenyl)-thiazol-5-ylmethoxy]-2-methoxy-phenyl}-4H-[1,2,4]oxadiazol-5-one], the EC50 was no less than 5 nM.
`NCc1nc(-c2ccc(C(F)(F)F)cc2)sc1COc1ccc(-c2noc(=O)[nH]2)c(F)c1` [Example 92, 3-{4-[4-Aminomethyl-2-(4-trifluoromethyl-phenyl)-thiazol-5-ylmethoxy]-2-fluoro-phenyl}-4H-1,2,4-oxadiazol-5-one] showed an EC50 of no less than 5 nM.
`COc1cc(OCc2sc(-c3ccc(C(F)(F)F)cc3)nc2CCCS(C)(=O)=O)ccc1-c1noc(=O)[nH]1` [Example 102, 3-{4-[4-(3-Methanesulfonyl-propyl)-2-(4-trifluoromethyl-phenyl)-thiazol-5-ylmethoxy]-2-methoxy-phenyl}-4H-1,2,4-oxadiazol-5-one] gave an EC50 of no less than 5 nM.
For `COc1ccc(-c2nc(CN3CCOCC3)c(COc3ccc(-c4noc(=O)[nH]4)c(Cl)c3)o2)cc1` [Example 70, 3-{2-Chloro-4-[2-(4-methoxy-phenyl)-4-morpholin-4-ylmethyl-oxazol-5-ylmethoxy]-phenyl}-4H-[1,2,4]oxadiazol-5-one], the EC50 was no less than 5 nM.
`COc1cc(OCc2sc(-c3ccc(C(F)(F)F)cc3)nc2CCCN2CCC(C(F)(F)F)CC2)ccc1-c1noc(=O)[nH]1` [Example 112, 3-(2-Methoxy-4-{2-(4-trifluoromethyl-phenyl)-4-[3-(4-trifluoromethyl-piperidin-1-yl)-propyl]-thiazol-5-ylmethoxy}-phenyl)-4H-[1,2,4]oxadiazol-5-one] was tested, and the EC50 was no less than 5 nM.
Work on `COc1cc(OCc2sc(-c3ccc(C(F)(F)F)cc3)nc2CCCN2CCCCCC2)ccc1-c1noc(=O)[nH]1` [Example 104, 3-{2-Methoxy-4-[4-(3-perhydro-azepin-1-yl-propyl)-2-(4-trifluoromethyl-phenyl)-thiazol-5-ylmethoxy]-phenyl}-4H-1,2,4-oxadiazol-5-one] yielded an EC50 of no less than 5 nM.
Work on `O=c1[nH]c(-c2ccc(OCc3sc(-c4ccc(C(F)(F)F)cc4)nc3CN3CCCCC3)cc2Cl)no1` [Example 73, 3-{2-Chloro-4-[4-piperidin-1-ylmethyl-2-(4-trifluoromethyl-phenyl)-thiazol-5-ylmethoxy]-phenyl}-4H-[1,2,4]oxadiazol-5-one] yielded an EC50 of no less than 5 nM.
In the case of `CC(=O)N1CCN(Cc2nc(-c3ccc(C(F)(F)F)cc3)sc2COc2ccc(-c3noc(=O)[nH]3)c(Cl)c2)CC1` [Example 74, 3-{4-[4-(4-Acetyl-piperazin-1-ylmethyl)-2-(4-trifluoromethyl-phenyl)-thiazol-5-ylmethoxy]-2-chloro-phenyl}-4H-[1,2,4]oxadiazol-5-one], the EC50 is reported as no less than 5 nM.
Work on `COCCNCc1nc(-c2ccc(C(F)(F)F)cc2)sc1COc1ccc(-c2noc(=O)[nH]2)c(C)c1` [Example 48, 3-{4-[4-[(2-Methoxy-ethylamino)-methyl]-2-(4-trifluoromethyl-phenyl)-thiazol-5-ylmethoxy]-2-methyl-phenyl}-4H-[1,2,4]oxadiazol-5-one] yielded an EC50 of no less than 5 nM.
Work on `COc1cc(OCc2sc(-c3ccc(C(F)(F)F)cc3)nc2CCCN2CCCCC2)ccc1-c1noc(=O)[nH]1` [Example 107, 3-{2-Methoxy-4-[4-(3-piperidin-1-yl-propyl)-2-(4-trifluoromethyl-phenyl)-thiazol-5-ylmethoxy]-phenyl}-4H-1,2,4-oxadiazol-5-one] yielded an EC50 of no less than 5 nM.
Work on `COc1cc(OCc2sc(-c3ccc(C(F)(F)F)cc3)nc2COC(C)=O)ccc1-c1noc(=O)[nH]1` [Example 34, Acetic acid 5-[3-methoxy-4-(5-oxo-4,5-dihydro-[1,2,4]oxadiazol-3-yl)-phenoxymethyl]-2-(4-trifluoromethyl-phenyl)-thiazol-4-ylmethyl ester] yielded an EC50 of no less than 5 nM.
In the case of `O=c1[nH]c(-c2ccc(OCc3sc(-c4ccc(C(F)(F)F)cc4)nc3COCCC3CCCCC3)cc2Cl)no1` [Example 83, 3-{2-Chloro-4-[4-(2-cyclohexyl-ethoxymethyl)-2-(4-trifluoromethyl-phenyl)-thiazol-5-ylmethoxy]-phenyl}-4H-[1,2,4]oxadiazol-5-one], the EC50 is reported as no less than 5 nM.
In the case of `O=c1[nH]c(-c2ccc(OCc3sc(-c4ccc(C(F)(F)F)cc4)nc3CN3CCC(F)(F)CC3)cc2F)no1` [Example 18, 3-{4-[4-(4,4-Difluoro-piperidin-1-ylmethyl)-2-(4-trifluoromethyl-phenyl)-thiazol-5-ylmethoxy]-2-fluoro-phenyl}-4H-[1,2,4]oxadiazol-5-one], the EC50 is reported as no less than 5 nM.
Work on `CCN(CCOC)Cc1nc(-c2ccc(OC)cc2)oc1COc1ccc(-c2noc(=O)[nH]2)c(C)c1` [Example 60, 3-{4-[4-{[Ethyl-(2-methoxy-ethyl)-amino]-methyl}-2-(4-methoxy-phenyl)-oxazol-5-ylmethoxy]-2-methyl-phenyl}-4H-[1,2,4]oxadiazol-5-one] yielded an EC50 of no less than 5 nM.
With `O=c1[nH]c(-c2ccc(OCc3sc(-c4ccc(C(F)(F)F)cc4)nc3CN3CCCC(CO)C3)cc2F)no1` (racemic) [Example 30, 3-{2-Fluoro-4-[4-(3-hydroxymethyl-piperidin-1-ylmethyl)-2-(4-trifluoromethyl-phenyl)-thiazol-5-ylmethoxy]-phenyl}-4H-[1,2,4]oxadiazol-5-one] the EC50 was no less than 5 nM.
Work on `COc1cc(OCc2sc(-c3ccc(C(F)(F)F)cc3)nc2CN2CCSCC2)ccc1-c1noc(=O)[nH]1` [Example 45, 3-{2-Methoxy-4-[4-thiomorpholin-4-ylmethyl-2-(4-trifluoromethyl-phenyl)-thiazol-5-ylmethoxy]-phenyl}-4H-[1,2,4]oxadiazol-5-one] yielded an EC50 of no less than 5 nM.
Work on `O=c1[nH]c(-c2ccc(OCc3sc(-c4ccc(C(F)(F)F)cc4)nc3CN3CCCC3CO)cc2F)no1` (racemic) [Example 24, 3-{2-Fluoro-4-[4-(2-hydroxymethyl-pyrrolidin-1-ylmethyl)-2-(4-trifluoromethyl-phenyl)-thiazol-5-ylmethoxy]-phenyl}-4H-[1,2,4]oxadiazol-5-one] yielded an EC50 of no less than 5 nM.
Work on `O=c1[nH]c(-c2ccc(OCc3sc(-c4ccc(C(F)(F)F)cc4)nc3CN3CCC(C(F)(F)F)CC3)cc2OCC(F)(F)F)no1` [Example 98, 3-{2-(2,2,2-Trifluoro-ethoxy)-4-[2-(4-trifluoromethyl-phenyl)-4-(4-trifluoromethyl-piperidin-1-ylmethyl)-thiazol-5-ylmethoxy]-phenyl}-4H-1,2,4-oxadiazol-5-one] yielded an EC50 of no less than 5 nM.
